Patent US10570184B2, “GLP-1/glucagon receptor co-agonists for medical use” (Novo Nordisk A/S, priority 2014, dated 2020)
For at least one compound, name, drawing or mass did not settle the structure. Starred links: 1 amine or outer side, 2 acyl side, 3 side chain; linkers in the order of their positions; H or OH if unused. Non-standard residues stand in square brackets, D forms with d. Residues, ends and D or L forms follow the SMILES beside them. Groups on a side chain read outwards from the residue. *: point of attachment. C18 diacid = O=C(O)CCCCCCCCCCCCCCCCC(=O)*; γGlu = O=C(O)[C@H](CCC(=O)[*:2])N[*:1]; AEEA = NCCOCCOCC(=O)O; Aib = CC(C)(N)C(=O)O

assay: Assay (III) ThT fibrillation assay for physical stability; assay type: physicochemical; settings: 250 μM in 10 mM HEPES buffer, 37° C., shaking 960 rpm
How it was run: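 Glucagon derivative at 250 μM in 10 mM HEPES pH 7.5 with 1 μM ThT was incubated at 37 °C under 960 rpm orbital shaking. Fluorescence (ex 444/em 485 nm) was read every 20 min and fitted for lag time (t0−2τ) and kapp (1/τ). Recovery was soluble peptide after centrifugation/filtration, by RP-HPLC, as percent of initial.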

ThT Assay Lag time (h) [Assay (III), pH 7.5], 45.0 h:
CC[C@H](C)[C@H](NC(=O)[C@H](CC(C)C)NC(=O)[C@H](Cc1c[nH]c2ccccc12)NC(=O)[C@H](CCC(N)=O)NC(=O)[C@@H](NC(=O)[C@H](Cc1ccccc1)NC(=O)[C@H](CC(=O)O)NC(=O)[C@H](CCCNC(=N)N)NC(=O)[C@H](C)NC(=O)[C@H](CCCNC(=N)N)NC(=O)[C@H](CCCNC(=N)N)NC(=O)[C@H](CO)NC(=O)[C@H](CCC(=O)O)NC(=O)[C@H](CC(C)C)NC(=O)[C@H](Cc1ccc(O)cc1)NC(=O)[C@H](CCCCN)NC(=O)[C@H](CO)NC(=O)[C@H](CC(C)C)NC(=O)[C@H](CC(=O)O)NC(=O)[C@H](CO)NC(=O)[C@@H](NC(=O)[C@H](Cc1ccccc1)NC(=O)[C@@H](NC(=O)CNC(=O)[C@H](CCC(N)=O)NC(=O)C(C)(C)NC(=O)[C@@H](N)Cc1c[nH]cn1)[C@@H](C)O)[C@@H](C)O)C(C)C)C(=O)N[C@@H](CCCCNC(=O)COCCOCCNC(=O)COCCOCCNC(=O)CC[C@H](NC(=O)CC[C@H](NC(=O)CC[C@H](NC(=O)CCCCCCCCCCCCCCCCC(=O)O)C(=O)O)C(=O)O)C(=O)O)C(=O)N[C@H](C(N)=O)[C@@H](C)O [Chem. 3, N^ε28-[2-[2-[2-[[2-[2-[2-[[(4S)-4-carboxy-4-[[(4S)-4-carboxy-4-[[(4S)-4-carboxy-4-(17-carboxyheptadecanoylamino)butanoyl]amino]butanoyl]amino]butanoyl]amino]ethoxy]ethoxy]acetyl]amino]ethoxy]ethoxy]acetyl]-[Aib2,Leu10,Glu15,Arg20,Ile27,Lys28]-Glucagon amide] (H-H[Aib]QGTFTSDLSKYLESRRARDFVQWLIK([AEEA-AEEA-γGlu-γGlu-γGlu-C18 diacid])T-NH2; N-terminus assumed)
CC[C@H](C)[C@H](NC(=O)[C@H](CC(C)C)NC(=O)[C@H](Cc1c[nH]c2ccccc12)NC(=O)[C@H](CCC(N)=O)NC(=O)[C@@H](NC(=O)[C@H](Cc1ccccc1)NC(=O)[C@H](CC(=O)O)NC(=O)[C@H](CCCNC(=N)N)NC(=O)[C@H](C)NC(=O)[C@H](CCCNC(=N)N)NC(=O)[C@H](CCCNC(=N)N)NC(=O)[C@H](C)NC(=O)[C@H](CC(=O)O)NC(=O)[C@H](CC(C)C)NC(=O)[C@H](Cc1ccc(O)cc1)NC(=O)[C@H](CCCCN)NC(=O)[C@H](CO)NC(=O)[C@H](CC(C)C)NC(=O)[C@H](CC(=O)O)NC(=O)[C@H](CO)NC(=O)[C@@H](NC(=O)[C@H](Cc1ccccc1)NC(=O)[C@@H](NC(=O)CNC(=O)[C@H](CCC(N)=O)NC(=O)C(C)(C)NC(=O)[C@@H](N)Cc1c[nH]cn1)[C@@H](C)O)[C@@H](C)O)C(C)C)C(=O)N[C@@H](CCCCNC(=O)CC[C@H](NC(=O)CC[C@H](NC(=O)CC[C@H](NC(=O)CCCCCCCCCCCCCCCCC(=O)O)C(=O)O)C(=O)O)C(=O)O)C(=O)N[C@H](C(N)=O)[C@@H](C)O [Chem. 15, N^ε28-[(4S)-4-carboxy-4-[[(4S)-4-carboxy-4-[[(4S)-4-carboxy-4-(17-carboxyheptadecanoylamino)butanoyl]amino]butanoyl]amino]butanoyl]-[Aib2,Leu10,Ala16,Arg20,Ile27,Lys28]-Glucagon amide] (HELM PEPTIDE1{H.[Aib].Q.G.T.F.T.S.D.L.S.K.Y.L.D.A.R.R.A.R.D.F.V.Q.W.L.I.K.T.[am]}|PEPTIDE2{[O=C(O)CCCCCCCCCCCCCCCCC(=O)[*:2]].[gGlu].[gGlu].[gGlu]}$PEPTIDE1,PEPTIDE2,28:R3-4:R2$$$V2.0)
CC[C@H](C)[C@H](NC(=O)[C@H](CC(C)C)NC(=O)[C@H](Cc1c[nH]c2ccccc12)NC(=O)[C@H](CCCCNC(=O)COCCOCCNC(=O)COCCOCCNC(=O)CC[C@H](NC(=O)CC[C@H](NC(=O)CC[C@H](NC(=O)CCCCCCCCCCCCCCCCC(=O)O)C(=O)O)C(=O)O)C(=O)O)NC(=O)[C@@H](NC(=O)[C@H](Cc1ccccc1)NC(=O)[C@H](CC(=O)O)NC(=O)[C@H](CCCNC(=N)N)NC(=O)[C@H](C)NC(=O)[C@H](CCCNC(=N)N)NC(=O)[C@H](CCCNC(=N)N)NC(=O)[C@H](CO)NC(=O)[C@H](CCC(=O)O)NC(=O)[C@H](CC(C)C)NC(=O)[C@H](Cc1ccc(O)cc1)NC(=O)[C@H](CCCCN)NC(=O)[C@H](CO)NC(=O)[C@H](Cc1ccc(O)cc1)NC(=O)[C@H](CC(=O)O)NC(=O)[C@H](CO)NC(=O)[C@@H](NC(=O)[C@H](Cc1ccccc1)NC(=O)[C@@H](NC(=O)CNC(=O)[C@H](CCC(N)=O)NC(=O)C(C)(C)NC(=O)[C@@H](N)Cc1c[nH]cn1)[C@@H](C)O)[C@@H](C)O)C(C)C)C(=O)N[C@@H](CO)C(=O)N[C@H](C(N)=O)[C@@H](C)O [Chem. 11, N^ε24-[2-[2-[2-[[2-[2-[2-[[(4S)-4-carboxy-4-[[(4S)-4-carboxy-4-[[(4S)-4-carboxy-4-(17-carboxyheptadecanoylamino)butanoyl]amino]butanoyl]amino]butanoyl]amino]ethoxy]ethoxy]acetyl]amino]ethoxy]ethoxy]acetyl]-[Aib2,Glu15,Arg20,Lys24,Ile27,Ser28]-Glucagon amide] (H-H[Aib]QGTFTSDYSKYLESRRARDFVK([AEEA-AEEA-γGlu-γGlu-γGlu-C18 diacid])WLIST-NH2)
CC[C@H](C)[C@H](NC(=O)[C@H](CC(C)C)NC(=O)[C@H](Cc1c[nH]c2ccccc12)NC(=O)[C@H](CCC(N)=O)NC(=O)[C@@H](NC(=O)[C@H](Cc1ccccc1)NC(=O)[C@H](CC(=O)O)NC(=O)[C@H](CCC(N)=O)NC(=O)[C@H](C)NC(=O)[C@H](CCCNC(=N)N)NC(=O)[C@H](CCCNC(=N)N)NC(=O)[C@H](CC(C)C)NC(=O)[C@H](CC(=O)O)NC(=O)[C@H](CC(C)C)NC(=O)[C@H](Cc1ccc(O)cc1)NC(=O)[C@H](CCCCN)NC(=O)[C@H](CO)NC(=O)[C@H](CC(C)C)NC(=O)[C@H](CC(=O)O)NC(=O)[C@H](CO)NC(=O)[C@@H](NC(=O)[C@H](Cc1ccccc1)NC(=O)[C@@H](NC(=O)CNC(=O)[C@H](CCC(N)=O)NC(=O)C(C)(C)NC(=O)[C@@H](N)Cc1c[nH]cn1)[C@@H](C)O)[C@@H](C)O)C(C)C)C(=O)N[C@@H](CCCCNC(=O)COCCOCCNC(=O)COCCOCCNC(=O)CC[C@H](NC(=O)CC[C@H](NC(=O)CC[C@H](NC(=O)CCCCCCCCCCCCCCCCC(=O)O)C(=O)O)C(=O)O)C(=O)O)C(=O)N[C@H](C(N)=O)[C@@H](C)O [Chem. 9, N^ε28-[2-[2-[2-[[2-[2-[2-[[(4S)-4-carboxy-4-[[(4S)-4-carboxy-4-[[(4S)-4-carboxy-4-(17-carboxyheptadecanoylamino)butanoyl]amino]butanoyl]amino]butanoyl]amino]ethoxy]ethoxy]acetyl]amino]ethoxy]ethoxy]acetyl]-[Aib2,Leu10,Leu16,Ile27,Lys28]-Glucagon amide] (H-H[Aib]QGTFTSDLSKYLDLRRAQDFVQWLIK([AEEA-AEEA-γGlu-γGlu-γGlu-C18 diacid])T-NH2; N-terminus assumed)
